Assays:
Format in all cases: cell-based
Details in all cases: selectivity index, A549 IC50 versus 30 day MCC
[1] = system: Acanthamoeba castellanii (ATCC50370) cysts; assay: Encystation drug susceptibility / excystation viability assay, 30 day recovery, A. castellanii cysts
Description: (§1) The trophozoites of Acanthamoeba were harvested by mechanical detachment and collected via centrifugation at 4000 rpm at 4° C. for 5 minutes. The trophozoites were washed in 10 mL of Neff's Encystment Media (NEM). NEM composition is 20 mM Tris-HCL [pH 8.8] (2.43 g/L), 100 mM KCL (7.46 g/L), 8 mM MgSO4 (962.96 mg/L), 0.4 mM CaCL2 58.81 mg/L) and 1 mM NaHCO3 (84.01 mg/L) (Neff et al. 1964). All reagents were bought from Sigma Aldrich. Centrifugation of the trophozoites was repeated to ensure any residual growth medium was removed. The pellet was resuspended in a final volume of 15 mL of NEM, cultured in 75 cm^2 corning tissue culture flasks and incubated vertically in a thermal shaker, shaken at 100 rpm at 37° C. for 72 hours to produce fully matured cysts. NEM was supplemented with 250 μg of penicillin/streptomycin. Fresh cysts were produced each time for any experimentation.
(§2) At 72 hours the cysts were harvested using a cell scraper and collected via centrifugation at 4000 rpm at 25° C. for 10 minutes. The cells were washed twice in 10 mL of HyClone™ water, Molecular Biology Grade, and centrifugation was repeated to ensure the removal of any residual NEM. The cell suspension was washed with 0.5% sodium dodecyl sulphate (SDS) to remove any remaining trophozoites and immature cysts. The fully mature cysts were further washed twice with 10 mL of HyClone™ water and 1% NEM, centrifugation was repeated to remove any residue of SDS. The concentration of mature cysts was determined using a haemocytometer and adjusted to 1×10^4 cysts/mL in NEM.
(§3) All test compounds were prepared as 5 mg/mL stock solutions in dimethylsulfoxide (DMSO). All compounds were diluted in NEM, serially diluted in 2-fold dilutions 6 or 11 times, yielding a screening concentration range of 1.56 μg/mL to 50 μg/mL or 48 ng/mL to 50 μg/mL with a final highest screening concentration of 1% DMSO.
(§4) Based on this, a strain specific test period and also a 30 day non-specific recovery time were considered. For the 30 day recovery period, the media was changed 5 times to ensure the contents of wells dis not evaporate and have an effect within the results of the assay.
(§5) 90 μL of 1×10^4 Cysts/ml and 10 μL of experimental compounds from the screening plates were produced according to the protocols above and combined into a Corning clear 96 well treated tissue culture plate. Control wells include cysts in non-drug treated, 1% DMSO, NEM (to be used for negative growth control), NEM Blank, PG blank and cysts in non-drug treated, 1% DMSO, PG (to excyst cells and to be used for positive growth control). The total well volume for all wells was 100 μL. The drug exposed plates were screened at 27° C. for 6 or 24 hours only. At the exposure time point the plates were centrifuged at 4000 rpm at 25° C. for 10 minutes and washed twice with phosphate-buffered saline (PBS) to remove any residual experimental compound.
(§6) Once the plate(s) underwent the Encystation drug susceptibility process, all wells except the negative growth control and NEM blank wells received PG growth medium. All plates were left to recover at 27° C. for the strain specific time period of 5, 9 or 11 days depending on the species of Acanthamoeba. At each of the strain specific time points the plates were removed from incubation and microscopically analysed (qualitatively) for the excystation process for the emergence of excysted viable trophozoites or residual cysts. The presence of excysted trophozoites indicated viable amoebae (non-cystistatic or cysticidal—no effect) and the absence of excystation was considered as cystistatic/cysticidal effects.

[2] = system: Acanthamoeba culbertsoni (ATCC30171) cysts; assay: Encystation drug susceptibility / excystation viability assay, 30 day recovery, A. culbertsoni cysts
Description: as §1, §2, §3, §4, §5, §6

[3] = system: Acanthamoeba healyi cysts; assay: Encystation drug susceptibility / excystation viability assay, 30 day recovery, A. healyi cysts
Description: as §1, §2, §3, §4, §5, §6

Compound	A. castellanii SI [1]	A. culbertsoni SI [2]	A. healyi SI [3]
CC(C)NC(=N)c1ccc2nc(-c3ccc(Oc4cc(F)c(-c5nc6ccc(C(=N)NC(C)C)cc6[nH]5)c(F)c4)cc3Br)[nH]c2c1 [Compound G, 2-(2-Bromo-4-(3,5-difluoro-4-(6-(N-isopropylcarbamimidoyl)-1H-benzo[d]imidazol-2-yl)phenoxy)phenyl)-N-isopropyl-1H-benzo[d]imidazole-6-carboximidamide]	3.44	3.44	3.44
CC(C)NC(=N)c1ccc2nc(-c3ccc(Oc4ccc(-c5nc6ccc(C(=N)NC(C)C)cc6[nH]5)c(F)c4F)cc3Br)[nH]c2c1 [Compound H, 2-(2-Bromo-4-(2,3-difluoro-4-(6-(N-isopropylcarbamimidoyl)-1H-benzo[d]imidazol-2-yl)phenoxy)phenyl)-N-isopropyl-1H-benzo[d]imidazole-6-carboximidamide]	1.65	1.65	1.65
CC(C)NC(=N)c1ccc2nc(-c3ccc(Oc4ccc(-c5nc6ccc(C(=N)NC(C)C)cc6[nH]5)c(Br)c4)cc3Br)[nH]c2c1 [Compound D, 2,2′-(Oxybis(2-bromo-4,1-phenylene))bis(N-isopropyl-1H-benzo[d]imidazole-6-carboximidamide)]	1.23	3.28	1.23
CC(C)NC(=N)c1ccc2nc(-c3cc(F)c(Oc4ccc(-c5nc6ccc(C(=N)NC(C)C)cc6[nH]5)c(Cl)c4)c(F)c3)[nH]c2c1 [Compound B, 2-(2-Chloro-4-(2,6-difluoro-4-(6-(N-isopropylcarbamimidoyl)-1H-benzo[d]imidazol-2-yl)phenoxy)phenyl)-N-isopropyl-1H-benzo[d]imidazole-6-carboximidamide]	1.78	5.94	4.45
CC(C)NC(=N)c1ccc2nc(-c3cc(F)c(Oc4ccc(-c5nc6ccc(C(=N)NC(C)C)cc6[nH]5)c(F)c4)c(F)c3)[nH]c2c1 [Compound C, 2-(3,5-Difluoro-4-(3-fluoro-4-(6-(N-isopropylcarbamimidoyl)-1H-benzo[d]imidazol-2-yl)phenoxy)phenyl)-N-isopropyl-1H-benzo[d]imidazole-6-carboximidamide]	1.51	3.01	1.51
CC(C)NC(=N)c1ccc2nc(-c3cc(F)c(Oc4ccc(-c5nc6ccc(C(=N)NC(C)C)cc6[nH]5)c(Br)c4)c(F)c3)[nH]c2c1 [Compound F, 2-(2-Bromo-4-(2,6-difluoro-4-(6-(N-isopropylcarbamimidoyl)-1H-benzo[d]imidazol-2-yl)phenoxy)phenyl)-N-isopropyl-1H-benzo[d]imidazole-6-carboximidamide]	2.60	2.60	3.90
CC(C)NC(=N)c1ccc2nc(-c3ccc(Oc4ccc(-c5nc6ccc(C(=N)NC(C)C)cc6[nH]5)c(Br)c4)cc3F)[nH]c2c1 [Compound E, 2-(2-Bromo-4-(3-fluoro-4-(6-(N-isopropylcarbamimidoyl)-1H-benzo[d]imidazol-2-yl)phenoxy)phenyl)-N-isopropyl-1H-benzo[d]imidazole-6-carboximidamide]	1.38	2.07	2.07
COc1cc(Oc2c(F)cc(-c3nc4ccc(C(=N)NC(C)C)cc4[nH]3)cc2F)ccc1-c1nc2ccc(C(=N)NC(C)C)cc2[nH]1 [Compound A, 2-(3,5-Difluoro-4-(4-(6-(N-isopropylcarbamimidoyl)-1H-benzo[d]imidazol-2-yl)-3-methoxyphenoxy)phenyl)-N-isopropyl-1H-benzo[d]imidazole-6-carboximidamide]	0.69	4.14	4.14

— US12433872B2, “Treatment of Acanthamoeba or Balamuthia trophozoites and/or cysts” (GEORGIA STATE UNIVERSITY RESEARCH FOUNDATION, INC., priority 2018, dated 2025)
